Test results published in the supplement of paper PMC4371806.
The full ranking holds about 1,600 compounds; the median of “plate-normalized OD600 growth (mean of duplicates)” is about 0.31, and the lowest 2% start at about 0.23. Some of the results follow.

System: Escherichia coli BW25113
Experiment: plate-normalized OD600 growth (mean of duplicates) (OD600 (normalized)); higher = more growth (less inhibition)
Details: 10 µM
Protocol: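 E. coli BW25113 in LB (100 µl, 96-well, no shaking) was exposed to 10 µM of each compound (here the ChemBridge subset of a ~30,000-member library) and grown at 37°C for 24 h or 15°C for 48 h, in duplicate. Growth was read as OD600 and the duplicate ODs were normalized across screening plates to correct plate-to-plate variation.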

O=C(O)C12CC3CC(CC(O)(C3)C1)C2 was tested. Which “plate-normalized OD600 growth” value (temperature: 15°C, 48 h) did it give?
The value was 0.244.

And the “plate-normalized OD600 growth” value (temperature: 37°C, 24 h)?
Its value is 0.645.

What does the source list for COc1cc(CN2CC(C)CC(C)C2)cc(I)c1O (stereo not given)?
plate-normalized OD600 growth (temperature: 15°C, 48 h): 0.252; plate-normalized OD600 growth (temperature: 37°C, 24 h): 0.644

What does the source list for COc1ccc(NCc2ccc(Cl)cc2Cl)cc1OC?
plate-normalized OD600 growth (temperature: 15°C, 48 h): 0.22; plate-normalized OD600 growth (temperature: 37°C, 24 h): 0.625

Which results are given for CCC1=C(O)c2ccccc2C(=O)C1=O?
plate-normalized OD600 growth (temperature: 15°C, 48 h): 0.25; plate-normalized OD600 growth (temperature: 37°C, 24 h): 0.6

Which “plate-normalized OD600 growth” value (temperature: 15°C, 48 h) does the source give for C=CCSc1nc2c(cc1C#N)CCCC2 here?
The value was 0.254.

What about the “plate-normalized OD600 growth” value (temperature: 37°C, 24 h) of the same compound?
Its value is 0.623.

Which “plate-normalized OD600 growth” value (temperature: 15°C, 48 h) does the source give for O=C(Nc1cc(F)c(F)cc1Cl)N1CCN(c2ccc([N+](=O)[O-])cc2)CC1 here?
Its value is 0.232.

What about the “plate-normalized OD600 growth” value (temperature: 37°C, 24 h) of the same compound?
The value was 0.615.

Which results are given for COc1ccccc1N1C(=O)CC(N2CCOCC2)C1=O (stereo not given)?
plate-normalized OD600 growth (temperature: 15°C, 48 h): 0.25; plate-normalized OD600 growth (temperature: 37°C, 24 h): 0.604

Which “plate-normalized OD600 growth” value (temperature: 15°C, 48 h) does the source give for CC(=O)Nc1ccc(C(=O)Nc2ccc(I)cc2)cc1 here?
Its value is 0.262.

And the “plate-normalized OD600 growth” value (temperature: 37°C, 24 h)?
The value was 0.635.

For Cc1ccc(C(=O)Nc2cccc(O)c2)cc1, which “plate-normalized OD600 growth” value (temperature: 15°C, 48 h) is on record?
The value was 0.237.

And the “plate-normalized OD600 growth” value (temperature: 37°C, 24 h)?
The value was 0.606.

How did the “plate-normalized OD600 growth” value (temperature: 15°C, 48 h) turn out when O=C(O)c1ccc(NS(=O)(=O)c2cccc(C(=O)Nc3ccccc3)c2)cc1 was run?
The value was 0.245.

What about the “plate-normalized OD600 growth” value (temperature: 37°C, 24 h) of the same compound?
Its value is 0.603.

How did the “plate-normalized OD600 growth” value (temperature: 15°C, 48 h) turn out when O=C(Nc1cccc(F)c1)c1cc(F)c(F)cc1Cl was run?
The value was 0.26.

And the “plate-normalized OD600 growth” value (temperature: 37°C, 24 h)?
Its value is 0.621.

Which “plate-normalized OD600 growth” value (temperature: 15°C, 48 h) does the source give for O=C(O)CCCNC(=O)c1ccncc1 here?
Its value is 0.254.

And the “plate-normalized OD600 growth” value (temperature: 37°C, 24 h)?
Its value is 0.622.

Which results are given for CCCCOC(=O)Nc1ccc(C)cc1C?
plate-normalized OD600 growth (temperature: 15°C, 48 h): 0.24; plate-normalized OD600 growth (temperature: 37°C, 24 h): 0.607

With N#CC(=Cc1cc(Cl)ccc1O)c1nc2ccccc2[nH]1 as the compound, how does the “plate-normalized OD600 growth” value (temperature: 15°C, 48 h) read?
Its value is 0.262.

And the “plate-normalized OD600 growth” value (temperature: 37°C, 24 h)?
The value was 0.643.

CCOc1ccccc1NC(=O)c1ccc(C)cc1 was tested. Which “plate-normalized OD600 growth” value (temperature: 15°C, 48 h) did it give?
Its value is 0.249.

What about the “plate-normalized OD600 growth” value (temperature: 37°C, 24 h) of the same compound?
The value was 0.601.

With O=C(Nc1ccc2c(c1)oc1ccccc12)c1ccncc1 as the compound, how does the “plate-normalized OD600 growth” value (temperature: 15°C, 48 h) read?
The value was 0.256.

What about the “plate-normalized OD600 growth” value (temperature: 37°C, 24 h) of the same compound?
Its value is 0.623.

What does the source list for N#CCCN(CCN1CCCC1)S(=O)(=O)c1cccc2nsnc12?
plate-normalized OD600 growth (temperature: 15°C, 48 h): 0.253; plate-normalized OD600 growth (temperature: 37°C, 24 h): 0.624

CCN(CC)CCN(C)C1CCN(C)CC1 was tested. Which “plate-normalized OD600 growth” value (temperature: 15°C, 48 h) did it give?
Its value is 0.256.

What about the “plate-normalized OD600 growth” value (temperature: 37°C, 24 h) of the same compound?
Its value is 0.612.

For COc1ccc2nc(C)c3c(c2c1)OC(C)C3 (stereo not given), which “plate-normalized OD600 growth” value (temperature: 15°C, 48 h) is on record?
Its value is 0.244.

What about the “plate-normalized OD600 growth” value (temperature: 37°C, 24 h) of the same compound?
Its value is 0.623.

Which results are given for CN(C)CCN(C)Cc1cccc(Cl)c1Cl?
plate-normalized OD600 growth (temperature: 15°C, 48 h): 0.235; plate-normalized OD600 growth (temperature: 37°C, 24 h): 0.632

What does the source list for O=C(CC(=O)c1ccc([N+](=O)[O-])cc1)Nc1ccccc1Cl?
plate-normalized OD600 growth (temperature: 15°C, 48 h): 0.252; plate-normalized OD600 growth (temperature: 37°C, 24 h): 0.606

What does the source list for COc1ccc(C(=O)CCN(C)C)cc1?
plate-normalized OD600 growth (temperature: 15°C, 48 h): 0.25; plate-normalized OD600 growth (temperature: 37°C, 24 h): 0.615

Which results are given for Cc1ccc(OCCCCc2c(C)n[nH]c2C)cc1?
plate-normalized OD600 growth (temperature: 15°C, 48 h): 0.276; plate-normalized OD600 growth (temperature: 37°C, 24 h): 0.62

Which results are given for O=C(NCCc1ccccc1)c1cccc(F)c1?
plate-normalized OD600 growth (temperature: 15°C, 48 h): 0.251; plate-normalized OD600 growth (temperature: 37°C, 24 h): 0.61

For C=CCN(C(=O)c1ccccc1)c1ccc(OC)cc1, which “plate-normalized OD600 growth” value (temperature: 15°C, 48 h) is on record?
The value was 0.267.

And the “plate-normalized OD600 growth” value (temperature: 37°C, 24 h)?
Its value is 0.629.

Which “plate-normalized OD600 growth” value (temperature: 15°C, 48 h) does the source give for COc1ccccc1N1C(=O)CC(N2CCN(Cc3ccccc3)CC2)C1=O (stereo not given) here?
Its value is 0.251.

And the “plate-normalized OD600 growth” value (temperature: 37°C, 24 h)?
Its value is 0.609.

CC(=O)NS(=O)(=O)c1ccc(NS(=O)(=O)c2ccccc2[N+](=O)[O-])cc1 was tested. Which “plate-normalized OD600 growth” value (temperature: 15°C, 48 h) did it give?
The value was 0.265.

And the “plate-normalized OD600 growth” value (temperature: 37°C, 24 h)?
The value was 0.624.

For COc1ccc(CNC2C3CC4CC(C3)CC2C4)c(OC)c1 (stereo not given), which “plate-normalized OD600 growth” value (temperature: 15°C, 48 h) is on record?
The value was 0.224.

What about the “plate-normalized OD600 growth” value (temperature: 37°C, 24 h) of the same compound?
Its value is 0.615.

Cc1cc(C)c(S(=O)(=O)Nc2cc(C)on2)c(C)c1 was tested. Which “plate-normalized OD600 growth” value (temperature: 15°C, 48 h) did it give?
Its value is 0.243.

What about the “plate-normalized OD600 growth” value (temperature: 37°C, 24 h) of the same compound?
The value was 0.612.

For CCCN(CCC)S(=O)(=O)c1ccc(C)c([N+](=O)[O-])c1, which “plate-normalized OD600 growth” value (temperature: 15°C, 48 h) is on record?
Its value is 0.27.

And the “plate-normalized OD600 growth” value (temperature: 37°C, 24 h)?
Its value is 0.638.

What does the source list for CN(C)/C=C/c1c(C=O)c2cc([N+](=O)[O-])ccc2n1C?
plate-normalized OD600 growth (temperature: 15°C, 48 h): 0.238; plate-normalized OD600 growth (temperature: 37°C, 24 h): 0.596

What does the source list for CCN(C(=O)c1cccc(Br)c1)c1ccccc1?
plate-normalized OD600 growth (temperature: 15°C, 48 h): 0.242; plate-normalized OD600 growth (temperature: 37°C, 24 h): 0.615

Which “plate-normalized OD600 growth” value (temperature: 15°C, 48 h) does the source give for CC(=O)Nc1ccc(C(=O)Nc2ccc(F)cc2)cc1 here?
The value was 0.256.

What about the “plate-normalized OD600 growth” value (temperature: 37°C, 24 h) of the same compound?
Its value is 0.626.

With Fc1ccccc1OCCSc1nc2ccccc2o1 as the compound, how does the “plate-normalized OD600 growth” value (temperature: 15°C, 48 h) read?
Its value is 0.249.

What about the “plate-normalized OD600 growth” value (temperature: 37°C, 24 h) of the same compound?
Its value is 0.6.

Which results are given for Cc1cc(=O)n2cccc(O)c2n1?
plate-normalized OD600 growth (temperature: 15°C, 48 h): 0.248; plate-normalized OD600 growth (temperature: 37°C, 24 h): 0.63
